# Source: the odorant receptor screen of Mainland et al. (2015)
# Values joined by “and” are separate entries in the source; they are usually repeats but may differ in a detail not shown here. Equal values may be shown once. Some of the results follow. Single wells; the ratio to wells without odorant was worked out here, and repeats agree poorly.
# Assays:
# Assay in all cases: odorant receptor activation (CRE luciferase / Renilla) (fold of no-odor wells); higher = more activation
# Settings in all cases: 100 µM
# [1] = test system: OR6J1 R121H/T124A/R226H/P250S/L274S/V279L clone 1714
# OR6K2 clone 1041 = test system: OR6K2 clone 1041
# [2] = test system: OR6K3 P228S/P248L clone 1045
# OR6K3 clone 1485 = test system: OR6K3 clone 1485
# OR6K6 clone 1348 = test system: OR6K6 clone 1348
# OR6K6 clone 1392 = test system: OR6K6 clone 1392
# OR6M1 clone 1182 = test system: OR6M1 clone 1182
# [3] = test system: OR6N1 I194T/F245L/Q261R/R293H clone 1038
# OR6N2 clone 1027 = test system: OR6N2 clone 1027
# OR6P1 clone 1034 = test system: OR6P1 clone 1034
# OR6Q1 clone 1231 = test system: OR6Q1 clone 1231
# OR6T1 clone 1188 = test system: OR6T1 clone 1188
# OR6V1 clone 1730 = test system: OR6V1 clone 1730
# OR6X1 clone 1239 = test system: OR6X1 clone 1239
# OR6Y1 V252I clone 1025 = test system: OR6Y1 V252I clone 1025
# OR7A10 clone 1104 = test system: OR7A10 clone 1104
# OR7A17 clone 1300 = test system: OR7A17 clone 1300
# OR7A5 clone 1469 = test system: OR7A5 clone 1469
# OR7C1 clone 1299 = test system: OR7C1 clone 1299
# [4] = test system: OR6S1 T42I/V156I/R237H clone 1271
SMILES,odorant receptor activation [1],odorant receptor activation (OR6K2 clone 1041),odorant receptor activation [2],odorant receptor activation (OR6K3 clone 1485),odorant receptor activation (OR6K6 clone 1348),odorant receptor activation (OR6K6 clone 1392),odorant receptor activation (OR6M1 clone 1182),odorant receptor activation [3],odorant receptor activation (OR6N2 clone 1027),odorant receptor activation (OR6P1 clone 1034),odorant receptor activation (OR6Q1 clone 1231),odorant receptor activation (OR6T1 clone 1188),odorant receptor activation (OR6V1 clone 1730),odorant receptor activation (OR6X1 clone 1239),odorant receptor activation (OR6Y1 V252I clone 1025),odorant receptor activation (OR7A10 clone 1104),odorant receptor activation (OR7A17 clone 1300),odorant receptor activation (OR7A5 clone 1469),odorant receptor activation (OR7C1 clone 1299),odorant receptor activation [4]
CCOc1cc(C=O)ccc1O [ethyl vanillin],0.779,1.35,1.01 and 1.13,1.1 and 2.79 and 1.47,0.881 and 1.89 and 1.23,1.15 and 1.31,1.79 and 1.21,1.74 and 0.865,0.725 and 1.04,1.03 and 0.923,1.42,1.06 and 1.24,0.861,0.716,1.48 and 1.46,1.02 and 0.882,1.37 and 0.841,1.45 and 1.86 and 1.27,1.87 and 1.21,
CCC(C)=O [2-butanone],0.988,3.49,2.38,1.11,0.858,1.06,1.15,5.05,2.87,3.06,0.789,1.43,0.764,1.07,2.79,6.62,1.06,1.15,1.02,1.28
CCCCOC(C)=O [butyl acetate],1.25,1.19,1.01,0.916,0.844,0.165,0.899,1,0.739,1.27,1.14,1.19,0.677,0.759,0.93,1.01,0.872,0.809,0.956,0.732
CS [methanethiol],1.9,1.14,1.22,0.817,0.904,0.673,1.01,1.24,1.12,1.18,0.708,0.932,0.779,0.854,1.26,1.15,1.07,0.759,1.24,0.846
